PubChem BioAssay AID1671195 | Yale University, 2021
Shown is one part, drawn at random, of about 22,000 deposited reagents. Over the whole deposit, about 1,510 (6.9%) are marked active. 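Active includes knockdowns raising or lowering LDL uptake; positive z-scores mean more uptake, negative mean less.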 Entries without a mark were called inactive.

Screen: 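Regulators of LDL receptor activity judged by labelled LDL uptake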 (primary screen)
Cell system: human Huh7 hepatoma cells
Reagent: siRNA pool against human genes, 18 nM
Time to read-out: about 2 to 2.5 days of knockdown, then 8 h LDL uptake
Conditions: DiI-labelled LDL at 30 µg/ml for 8 h, in lipoprotein-deficient serum medium
Measurement: 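Per-cell DiI-LDL intensity by automated imaging; well means scaled to the plate median and given as a robust z-score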
Scale: robust z-score: higher = more LDL uptake after knockdown
Active means: 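Active when two or more replicates show a robust z-score above 2 or below -2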

Against TMEM174, the values are robust z-score, replicate 1 = 1.02; robust z-score, replicate 2 = 0.967; robust z-score, replicate 3 = 1.37. After knock-down of LOC388890 (retired record), the screen gave robust z-score, replicate 1 = -0.835; robust z-score, replicate 2 = -0.652; robust z-score, replicate 3 = -0.913. Against IL2RG, the entry reads robust z-score, replicate 1 = 0.537; robust z-score, replicate 2 = 0.241; robust z-score, replicate 3 = 0.864. Depletion of LOC400782 (retired record) resulted in: robust z-score, replicate 1 = -0.607; robust z-score, replicate 2 = -0.573; robust z-score, replicate 3 = -0.445. For REG3G, the values are robust z-score, replicate 1 = -0.279; robust z-score, replicate 2 = -1.45; robust z-score, replicate 3 = -0.898. With knock-down of CDKN2D, the record shows robust z-score, replicate 1 = -0.093; robust z-score, replicate 2 = 0.612; robust z-score, replicate 3 = -0.156.

After knock-down of SLC19A1, the record shows robust z-score, replicate 1 = -0.787; robust z-score, replicate 2 = -0.997; robust z-score, replicate 3 = -0.842. Against CCL13 the deposit lists robust z-score, replicate 1 = -0.237; robust z-score, replicate 2 = 0.14; robust z-score, replicate 3 = -0.304. For KRTAP1-3 the deposit lists robust z-score, replicate 1 = -0.681; robust z-score, replicate 2 = -0.755; robust z-score, replicate 3 = -0.339. For RSRP1 the deposit lists robust z-score, replicate 1 = 0.168; robust z-score, replicate 2 = 0.441; robust z-score, replicate 3 = -0.0378. Silencing of KRT72 resulted in: robust z-score, replicate 1 = 0.231; robust z-score, replicate 2 = 0.979; robust z-score, replicate 3 = 0.703. Silencing of NWD1 came out at: robust z-score, replicate 1 = 0.0978; robust z-score, replicate 2 = 0.525; robust z-score, replicate 3 = 0.56.

Depletion of ISM1 gave: robust z-score, replicate 1 = -0.441; robust z-score, replicate 2 = -0.422; robust z-score, replicate 3 = -1.87. For ADHFE1 the deposit lists robust z-score, replicate 1 = -2 (active); robust z-score, replicate 2 = -2.07; robust z-score, replicate 3 = -2.33. Against C1orf50, the values are robust z-score, replicate 1 = 1.63; robust z-score, replicate 2 = 0.901; robust z-score, replicate 3 = 2.12. Against CELF2 the deposit lists robust z-score, replicate 1 = 3.5; robust z-score, replicate 2 = 3; robust z-score, replicate 3 = 2.99. After knock-down of KCNS3, the record shows robust z-score, replicate 1 = -1.76; robust z-score, replicate 2 = -1.67; robust z-score, replicate 3 = -0.805. ZSCAN5A scored robust z-score, replicate 1 = -0.927; robust z-score, replicate 2 = -0.912; robust z-score, replicate 3 = -0.777.

Knock-down of USP27X resulted in: robust z-score, replicate 1 = -1.33; robust z-score, replicate 2 = -1.99; robust z-score, replicate 3 = -1.32. After knock-down of SRP14P1, the screen gave robust z-score, replicate 1 = -0.456; robust z-score, replicate 2 = -0.832; robust z-score, replicate 3 = -0.592. Knock-down of LOC388139 (retired record) gave: robust z-score, replicate 1 = -0.124; robust z-score, replicate 2 = 0.103; robust z-score, replicate 3 = 0.26. Silencing of OPN1SW gave: robust z-score, replicate 1 = 1.41; robust z-score, replicate 2 = 1.08; robust z-score, replicate 3 = 1.55. Against TSPAN4 the deposit lists robust z-score, replicate 1 = -0.151; robust z-score, replicate 2 = -1.08; robust z-score, replicate 3 = -0.139. Against LBH, the values are robust z-score, replicate 1 = -1.24; robust z-score, replicate 2 = -2.05; robust z-score, replicate 3 = -1.14.

SDC2 gave robust z-score, replicate 1 = 0.554; robust z-score, replicate 2 = -1.18; robust z-score, replicate 3 = -1.3. Against MMD the deposit lists robust z-score, replicate 1 = 1.09; robust z-score, replicate 2 = 1.39; robust z-score, replicate 3 = 1.1. After knock-down of NIP7 the results were robust z-score, replicate 1 = -0.25; robust z-score, replicate 2 = 1.65; robust z-score, replicate 3 = 1.2. For MDM2, the entry reads robust z-score, replicate 1 = 0.969; robust z-score, replicate 2 = 0.758; robust z-score, replicate 3 = 1.63. With knock-down of LOC440030 (retired record) the results were robust z-score, replicate 1 = -1.14; robust z-score, replicate 2 = -1.24; robust z-score, replicate 3 = -1.6. Knock-down of CSAG2 came out at: robust z-score, replicate 1 = 0.436; robust z-score, replicate 2 = -0.215; robust z-score, replicate 3 = -0.431.
